According to publication PMC11237669:
Results are given in words; binding and its absence hold for the method and conditions named. Binding seen in cells or lysates may run through a third protein. Some results given as binding are weak or reduced against the parent protein; the word gives no strength. Where a sequence is shown, tags or fusion partners need not be part of it.

The chains behind the UniProt entries cited, without tags or fusion partners. Residues count along the entry.
UniProt P11021, residues 19-654: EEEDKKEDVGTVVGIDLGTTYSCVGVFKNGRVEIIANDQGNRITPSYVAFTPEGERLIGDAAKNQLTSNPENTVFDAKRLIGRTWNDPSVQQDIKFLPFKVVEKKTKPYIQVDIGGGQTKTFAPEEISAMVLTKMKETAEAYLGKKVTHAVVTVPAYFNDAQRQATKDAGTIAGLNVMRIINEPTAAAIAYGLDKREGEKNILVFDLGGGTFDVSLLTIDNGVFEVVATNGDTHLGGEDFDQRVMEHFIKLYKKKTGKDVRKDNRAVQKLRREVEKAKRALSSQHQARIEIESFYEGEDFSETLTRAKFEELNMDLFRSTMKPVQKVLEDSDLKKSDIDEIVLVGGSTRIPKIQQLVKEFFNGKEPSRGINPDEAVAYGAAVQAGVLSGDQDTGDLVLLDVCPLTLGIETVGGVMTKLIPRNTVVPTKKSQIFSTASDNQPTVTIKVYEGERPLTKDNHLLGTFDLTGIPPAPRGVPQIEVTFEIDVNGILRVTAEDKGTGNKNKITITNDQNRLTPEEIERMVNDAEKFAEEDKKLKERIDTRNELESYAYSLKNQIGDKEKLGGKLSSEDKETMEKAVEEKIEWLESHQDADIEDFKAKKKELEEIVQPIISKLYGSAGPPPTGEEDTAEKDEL

Target: T1, HA-tagged CHUK (human (amplified from 293T cells)) (UniProt O15111)
T1 sequence: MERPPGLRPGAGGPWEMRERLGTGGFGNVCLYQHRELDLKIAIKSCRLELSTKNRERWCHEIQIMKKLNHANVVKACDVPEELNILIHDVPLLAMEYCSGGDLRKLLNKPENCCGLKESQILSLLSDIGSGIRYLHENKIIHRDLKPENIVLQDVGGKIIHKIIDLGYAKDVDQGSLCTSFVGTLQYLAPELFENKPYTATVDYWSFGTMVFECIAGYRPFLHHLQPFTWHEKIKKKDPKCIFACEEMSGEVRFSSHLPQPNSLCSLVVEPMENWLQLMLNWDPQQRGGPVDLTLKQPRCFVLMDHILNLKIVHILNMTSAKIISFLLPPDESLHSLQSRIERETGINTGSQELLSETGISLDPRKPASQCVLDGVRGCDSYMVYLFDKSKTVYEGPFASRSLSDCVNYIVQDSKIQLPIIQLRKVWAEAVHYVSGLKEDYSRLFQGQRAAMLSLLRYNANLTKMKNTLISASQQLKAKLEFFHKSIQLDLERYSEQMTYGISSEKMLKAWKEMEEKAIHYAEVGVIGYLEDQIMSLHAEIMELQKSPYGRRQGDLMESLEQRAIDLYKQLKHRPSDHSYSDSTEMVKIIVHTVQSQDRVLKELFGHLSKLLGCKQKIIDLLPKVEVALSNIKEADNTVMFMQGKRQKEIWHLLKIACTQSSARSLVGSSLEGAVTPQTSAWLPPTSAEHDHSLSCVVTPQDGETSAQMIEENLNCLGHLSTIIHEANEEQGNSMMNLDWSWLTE
Assay: co-IP; 293T cells co-transfected with the two tagged plasmids (2.5 µg each); RIPA whole-cell lysates, sonicated; precipitated with anti-Flag, anti-His or anti-HA nanobody magnetic beads overnight at 4°C; immunoblot

- binding: binds
Substance: His-tagged GRP78 (78 kDa glucose-regulated protein) (from UniProt P11021 19-654)
